Laboratory results from patent publication US20130090249A1.
These are yes or no findings as the source states them, for the method shown. Some entries that bind do so weakly or less than the wild type. Where a sequence is shown, tags or fusion partners need not be part of it. Blank lines part the entries; values can stand above or below the binder they belong to.

Columns and labels:
Lingo-4-YFP (human) = biological target: T1, Lingo-4-YFP (human) (UniProt Q6UY18); experiment: BRET saturation in live HEK-293 cells, 96-well plates
T1 sequence: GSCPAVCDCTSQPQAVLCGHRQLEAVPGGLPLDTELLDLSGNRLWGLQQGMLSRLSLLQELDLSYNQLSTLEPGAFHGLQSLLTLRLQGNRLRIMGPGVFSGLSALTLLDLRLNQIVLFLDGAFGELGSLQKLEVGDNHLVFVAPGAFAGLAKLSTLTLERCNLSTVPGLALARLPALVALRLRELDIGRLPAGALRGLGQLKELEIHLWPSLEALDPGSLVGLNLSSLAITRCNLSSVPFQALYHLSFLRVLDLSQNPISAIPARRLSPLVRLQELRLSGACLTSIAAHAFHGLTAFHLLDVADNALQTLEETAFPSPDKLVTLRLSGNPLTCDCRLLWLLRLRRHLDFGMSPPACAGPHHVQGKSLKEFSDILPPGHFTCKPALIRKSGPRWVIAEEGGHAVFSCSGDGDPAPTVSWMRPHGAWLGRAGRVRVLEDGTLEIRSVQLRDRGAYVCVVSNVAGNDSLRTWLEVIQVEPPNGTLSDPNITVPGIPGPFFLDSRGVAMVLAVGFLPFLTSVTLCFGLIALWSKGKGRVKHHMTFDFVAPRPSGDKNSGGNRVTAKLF

Lingo-3-YFP (human) = biological target: T2, Lingo-3-YFP (human) (UniProt P0C6S8); experiment: as above
T2 sequence: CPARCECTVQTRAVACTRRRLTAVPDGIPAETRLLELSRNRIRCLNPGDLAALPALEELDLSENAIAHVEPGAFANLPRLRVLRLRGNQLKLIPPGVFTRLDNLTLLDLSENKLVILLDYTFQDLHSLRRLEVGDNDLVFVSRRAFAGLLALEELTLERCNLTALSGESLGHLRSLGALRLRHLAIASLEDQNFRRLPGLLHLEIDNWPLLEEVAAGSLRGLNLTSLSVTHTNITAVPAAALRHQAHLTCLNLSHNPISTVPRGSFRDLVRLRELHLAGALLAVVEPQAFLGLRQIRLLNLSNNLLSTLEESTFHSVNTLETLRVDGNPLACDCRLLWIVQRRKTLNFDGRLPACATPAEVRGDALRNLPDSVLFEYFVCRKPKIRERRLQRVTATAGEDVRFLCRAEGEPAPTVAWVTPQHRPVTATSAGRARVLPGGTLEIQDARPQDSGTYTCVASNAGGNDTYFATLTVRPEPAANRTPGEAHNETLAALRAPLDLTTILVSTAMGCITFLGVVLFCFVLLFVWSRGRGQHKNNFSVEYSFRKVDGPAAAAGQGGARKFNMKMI

- binding (Lingo-4-YFP (human)): binds
B1: Lingo-4-RLuc (protein, not shown: large carriers)
chain: T1 sequence

- binding (Lingo-3-YFP (human)): binds
B2: Lingo-3-RLuc (protein, not shown: large carriers)
chain: T2 sequence
